ChEMBL document CHEMBL4303122, “Identification of potential treatments for COVID-19 through artificial intelligence-enabled phenomic analysis of human cells infected with SARS-CoV-2” (2020)
The full ranking holds about 1,600 compounds; the median of “Hit score” is about 0.13, and the highest 2% start at about 0.46. This is one part of the list. Where a SMILES comes first, the peptide text is derived from it. Bridges are numbered along the chain shown (N, C = ends). [ ]: non-standard residue; d: D form. hArg = N=C(N)NCCCC[C@H](N)C(=O)O; Mpa = O=C(O)CCS

What follows are compounds tested on SARS-CoV-2 (assay: Antiviral activity against SARS-CoV-2 (USA-WA1/2020 strain) measured by imaging in HRCE cells at MOI 0.4 after 96 hrs (reported as hit score from 0-1 for on-disease vs off-disease activity: scores >0.6 considered hits)).
Format: functional, Homo sapiens
For `CCCN[C@H]1CCc2nc(N)sc2C1` [PRAMIPEXOLE], the Hit score was 0.02328.
For `COc1ccc(C(=O)CC2(O)C(=O)Nc3c(Cl)ccc(Cl)c32)cc1` (centres undefined), the Hit score was 0.2466.
With `CCOC(=O)c1ccc(OC(=O)CCCCCNC(=N)N)cc1` [GABEXATE] the Hit score was 0.2661.
With `CCCCC[C@H](O)/C=C/[C@@H]1[C@@H](C/C=C\CCCC(=O)O)[C@@H](O)C[C@H]1O` [DINOPROST] the Hit score was 0.3611.
Work on `CC(=O)c1ccc(S(=O)(=O)NC(=O)NC2CCCCC2)cc1` [ACETOHEXAMIDE] yielded a Hit score of 0.1296.
`COc1cc(/C=C/C(=O)N2CCN(CC(=O)N3CCCC3)CC2)cc(OC)c1OC` [CINEPAZIDE] was tested, and the Hit score was 0.05308.
`CC(=O)N[C@H]1[C@H]([C@H](O)[C@H](O)CO)OC(C(=O)O)=C[C@@H]1NC(=N)N` [ZANAMIVIR] was tested, and the Hit score was 0.0708.
`COc1ccc(CN(CCN(C)C)c2ccccn2)cc1` [PYRILAMINE] was tested, and the Hit score was 0.07513.
`Cn1c(=O)cc(N2CCC[C@@H](N)C2)n(Cc2cc(F)ccc2C#N)c1=O` [TRELAGLIPTIN] was tested, and the Hit score was 0.1171.
`C[C@]12C=CC(=O)C=C1CC[C@@H]1[C@@H]2[C@@H](O)C[C@@]2(C)[C@H]1CC[C@]2(O)C(=O)O` [LOTEPREDNOL] gave a Hit score of 0.1972.
Compound `COc1cc2c(Oc3ccc4[nH]c(C)cc4c3F)ccnc2cc1OCC1(N)CC1` [CATEQUENTINIB] has a Hit score of 0.165.
With `CCC(=O)O[C@]1(C(=O)CCl)[C@@H](C)C[C@H]2[C@@H]3C[C@H](F)C4=CC(=O)C=C[C@]4(C)[C@@]3(F)[C@@H](O)C[C@@]21C` [HALOBETASOL PROPIONATE] the Hit score was 0.1488.
Compound `COc1ccc(Cc2nccc3cc(OC)c(OC)cc23)cc1OC` [PAPAVERINE] has a Hit score of 0.03666.
`N=C(N)NCCCC[C@@H]1NC(=O)CCSSC[C@@H](C(N)=O)NC(=O)[C@@H]2CCCN2C(=O)[C@H](Cc2c[nH]c3ccccc23)NC(=O)[C@H](CC(=O)O)NC(=O)CNC1=O` [EPTIFIBATIDE] ([Mpa][hArg]GDWPC-NH2; disulfide 1-7) was tested, and the Hit score was -0.04529.
For `c1ccc(C2CN3CCSC3=N2)cc1` (centres undefined) [TETRAMISOLE], the Hit score was 0.1521.
In the case of `COC(=O)CC1CC(c2ccc(O)cc2)=NO1` (centres undefined), the Hit score is reported as 0.2758.
Compound `CC(=O)OCC(COC(C)=O)OC(C)=O` [TRIACETIN] has a Hit score of 0.08279.
`N#Cc1c(N2C[C@@H]3NCCO[C@H]3C2)c(F)cc2c(=O)c(C(=O)O)cn(C3CC3)c12` [FINAFLOXACIN] showed a Hit score of 0.04952.
`O=C(NC(=O)c1c(F)cccc1F)Nc1cc(Cl)c(OC(F)(F)C(F)C(F)(F)F)cc1Cl` (centres undefined) [LUFENURON] gave a Hit score of 0.138.
`NC(=O)N1c2ccccc2C=Cc2ccccc21` [CARBAMAZEPINE] showed a Hit score of 0.2353.
`COC(=O)N[C@H](C(=O)N1CC2(CC2)C[C@H]1c1nc(-c2ccc3c(c2)C(F)(F)c2cc(-c4ccc5[nH]c([C@@H]6[C@H]7CC[C@H](C7)N6C(=O)[C@@H](NC(=O)OC)C(C)C)nc5c4)ccc2-3)c[nH]1)C(C)C` was tested, and the Hit score was -0.2222.
Compound `C1=Cc2cccc(OCC3CNCCO3)c2C1.Cl` (centres undefined) [INDELOXAZINE HYDROCHLORIDE] has a Hit score of -0.04248.
Work on `C[C@H](N/C(=N/C#N)Nc1cccc2ncccc12)c1ccccc1` yielded a Hit score of 0.1517.
In the case of `COc1c(O[C@@H]2O[C@H](CO)[C@@H](O)[C@H](O)[C@H]2O)cc2c(c1OC)-c1ccc(SC)c(=O)cc1[C@@H](NC(C)=O)CC2` [THIOCOLCHICOSIDE], the Hit score is reported as 0.1984.
Work on `CC(C)N(CCNC(=O)CN1CCCC1=O)C(C)C` yielded a Hit score of 0.1027.
For `CCC(c1ccccc1)c1c(O)c2ccccc2oc1=O` (centres undefined) [PHENPROCOUMON], the Hit score was 0.1829.
`CC(=O)N[C@@H](CC(C)C)C(=O)O` showed a Hit score of 0.1332.
With `Nc1nc(=O)c2nc(CNc3ccc(C(=O)N[C@@H](CCC(=O)O)C(=O)O)cc3)cnc2[nH]1` [FOLIC ACID] the Hit score was 0.1591.
`CC(C)(C)NC(=O)[C@@H]1C[C@@H]2CCCC[C@@H]2CN1C[C@@H](O)[C@H](Cc1ccccc1)NC(=O)[C@H](CC(N)=O)NC(=O)c1ccc2ccccc2n1` was tested, and the Hit score was 0.2021.
`C#C[C@]1(OC(=O)CCCCCC)CC[C@H]2[C@@H]3CCC4=CC(=O)CC[C@@H]4[C@H]3CC[C@@]21C` was tested, and the Hit score was 0.06115.
For `CN1[C@@H]2CC[C@H]1C[C@@H](OC(=O)c1c[nH]c3ccccc13)C2` [TROPISETRON], the Hit score was 0.2296.
Work on `CC(C)NCC(O)COc1ccc(COCCOC(C)C)cc1` (centres undefined) [BISOPROLOL] yielded a Hit score of 0.1972.
For `CN(C)Cc1c(C(=O)NCCOc2ccc(C(=O)NO)cc2)oc2ccccc12` [ABEXINOSTAT], the Hit score was 0.02119.
Work on `O=C1CN2Cc3c(ccc(Cl)c3Cl)N=C2N1` [ANAGRELIDE] yielded a Hit score of 0.1678.
For `Nc1nc(Cl)nc2c1ncn2[C@@H]1O[C@H](CO)[C@@H](O)[C@@H]1F` [CLOFARABINE], the Hit score was -0.04584.
In the case of `COc1ccc(-c2cc(=O)c3c(O)cc(O)cc3o2)cc1O` [DIOSMETIN], the Hit score is reported as 0.3872.
For `CC(C)(C)NCC(O)c1cc(Cl)c(N)c(Cl)c1` (centres undefined) [CLENBUTEROL], the Hit score was -0.07437.
In the case of `CC1(C)S[C@@H]2[C@H](NC(=O)[C@H](NC(=O)N3CCN(S(C)(=O)=O)C3=O)c3ccccc3)C(=O)N2[C@H]1C(=O)O` [MEZLOCILLIN], the Hit score is reported as 0.1621.
`OC(CCN1CCCCC1)(c1ccccc1)C1CC2C=CC1C2` (centres undefined) [BIPERIDEN] gave a Hit score of 0.3402.
`CCN(CC)CC#CCOC(=O)C(O)(c1ccccc1)C1CCCCC1` (centres undefined) [OXYBUTYNIN] gave a Hit score of 0.1254.
`Cc1ncc([N+](=O)[O-])n1CCO` [METRONIDAZOLE] showed a Hit score of 0.1151.
In the case of `CN(C)CCOC1=Cc2ccccc2Sc2ccc(Cl)cc21` [ZOTEPINE], the Hit score is reported as -0.05771.
With `CC(C)(C)NCC(O)COc1cc(Cl)ccc1Cl` (centres undefined) [CLORANOLOL] the Hit score was 0.4962.
Work on `CC(C)N1CCN(c2ccc(OCC3COC(Cn4cncn4)(c4ccc(Cl)cc4Cl)O3)cc2)CC1` (centres undefined) [TERCONAZOLE] yielded a Hit score of 0.03816.
